Reference: patent US20120021999A1 (published 2012)
These are yes or no findings as the source states them, for the method shown. In cells and extracts the contact can be indirect. Some results given as binding are weak or reduced against the parent protein; the word gives no strength.

The chains behind the UniProt entries cited, without tags or fusion partners.
UniProt P63330: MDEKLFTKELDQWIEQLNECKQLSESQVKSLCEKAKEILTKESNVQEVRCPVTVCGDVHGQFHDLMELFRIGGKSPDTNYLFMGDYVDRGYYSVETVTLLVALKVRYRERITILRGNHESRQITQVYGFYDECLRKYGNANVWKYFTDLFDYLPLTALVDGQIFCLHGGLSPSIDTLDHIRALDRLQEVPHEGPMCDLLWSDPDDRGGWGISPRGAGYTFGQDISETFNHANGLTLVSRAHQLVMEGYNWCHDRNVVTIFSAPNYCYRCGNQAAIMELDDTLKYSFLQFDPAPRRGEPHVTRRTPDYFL

Target: PP2Ac from IL-2-stimulated TS1αβ cellular extracts (mouse) (UniProt P63330)
Test: pull-down of biotinylated peptide on streptavidin beads from TS1αβ cell extracts, anti-PP2Ac immunoblot

binding | Binder
binds | VKKKKIKREIKIYIETLDGILEQWARSEDL (NH2-biotinylated) [DPT-C9]
binds | YIETLDGILEQWARSEDL (NH2-biotinylated) [C9]
